Test [1] has as its target T1, Vik1–Kar3 heterodimer (full-length Vik1-1xFLAG with Halo-Kar3) (S. cerevisiae (S288c)) (UniProt P17119+Q12045).
T1 sequence (chain, HaloTag TMR ligand covalently bound to the HaloTag (imaging experiments)) 1: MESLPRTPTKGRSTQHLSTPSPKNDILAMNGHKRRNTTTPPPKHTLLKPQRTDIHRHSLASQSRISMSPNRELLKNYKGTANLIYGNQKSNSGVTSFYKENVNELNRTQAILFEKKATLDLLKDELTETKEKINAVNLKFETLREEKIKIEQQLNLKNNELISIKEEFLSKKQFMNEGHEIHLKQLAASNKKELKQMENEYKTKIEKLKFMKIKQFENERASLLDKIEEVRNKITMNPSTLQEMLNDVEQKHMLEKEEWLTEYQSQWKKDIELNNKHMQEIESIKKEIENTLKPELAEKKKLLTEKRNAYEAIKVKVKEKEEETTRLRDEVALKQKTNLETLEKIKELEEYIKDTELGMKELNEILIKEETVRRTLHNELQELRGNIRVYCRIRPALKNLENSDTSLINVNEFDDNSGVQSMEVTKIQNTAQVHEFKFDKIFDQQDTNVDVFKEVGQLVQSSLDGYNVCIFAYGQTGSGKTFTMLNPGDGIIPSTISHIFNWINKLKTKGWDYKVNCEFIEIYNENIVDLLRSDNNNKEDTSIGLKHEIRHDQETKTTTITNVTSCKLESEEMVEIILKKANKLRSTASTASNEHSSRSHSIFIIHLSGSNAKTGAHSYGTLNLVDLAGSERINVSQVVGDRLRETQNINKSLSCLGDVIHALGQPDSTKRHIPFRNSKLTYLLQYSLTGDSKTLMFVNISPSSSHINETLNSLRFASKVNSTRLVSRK
T1 sequence (chain, HaloTag TMR ligand covalently bound to the HaloTag (imaging experiments)) 2: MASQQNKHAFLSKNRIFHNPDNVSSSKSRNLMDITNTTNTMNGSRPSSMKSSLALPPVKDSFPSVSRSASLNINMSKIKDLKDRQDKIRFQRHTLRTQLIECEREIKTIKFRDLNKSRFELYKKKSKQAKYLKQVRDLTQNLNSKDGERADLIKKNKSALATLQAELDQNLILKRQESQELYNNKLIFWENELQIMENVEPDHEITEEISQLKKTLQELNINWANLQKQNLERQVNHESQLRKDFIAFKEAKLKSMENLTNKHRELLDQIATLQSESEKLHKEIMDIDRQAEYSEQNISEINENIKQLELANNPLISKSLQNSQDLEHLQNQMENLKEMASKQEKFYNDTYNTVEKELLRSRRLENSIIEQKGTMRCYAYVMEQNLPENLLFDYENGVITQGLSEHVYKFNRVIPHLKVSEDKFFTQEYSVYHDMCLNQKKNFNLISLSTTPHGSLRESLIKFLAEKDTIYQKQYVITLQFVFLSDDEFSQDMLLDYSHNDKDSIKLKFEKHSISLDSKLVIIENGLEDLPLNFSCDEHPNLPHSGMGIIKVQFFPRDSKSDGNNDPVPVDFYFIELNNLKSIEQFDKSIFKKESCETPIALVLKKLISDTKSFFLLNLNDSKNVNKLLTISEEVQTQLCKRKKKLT
The test is described as follows: in vitro recruitment to microtubules (TIRF microscopy); bulk recruitment assay in the absence of nucleotide; TMR-labeled Kar3 motors and fluorescently labeled recombinant Ndc80 complex on surface-immobilised taxol-stabilized microtubules; both purified.

Amino acid sequences for entries named in this document (tags omitted). A change or cut given only in a name is not applied to a line headed by its entry.
UniProt P40460: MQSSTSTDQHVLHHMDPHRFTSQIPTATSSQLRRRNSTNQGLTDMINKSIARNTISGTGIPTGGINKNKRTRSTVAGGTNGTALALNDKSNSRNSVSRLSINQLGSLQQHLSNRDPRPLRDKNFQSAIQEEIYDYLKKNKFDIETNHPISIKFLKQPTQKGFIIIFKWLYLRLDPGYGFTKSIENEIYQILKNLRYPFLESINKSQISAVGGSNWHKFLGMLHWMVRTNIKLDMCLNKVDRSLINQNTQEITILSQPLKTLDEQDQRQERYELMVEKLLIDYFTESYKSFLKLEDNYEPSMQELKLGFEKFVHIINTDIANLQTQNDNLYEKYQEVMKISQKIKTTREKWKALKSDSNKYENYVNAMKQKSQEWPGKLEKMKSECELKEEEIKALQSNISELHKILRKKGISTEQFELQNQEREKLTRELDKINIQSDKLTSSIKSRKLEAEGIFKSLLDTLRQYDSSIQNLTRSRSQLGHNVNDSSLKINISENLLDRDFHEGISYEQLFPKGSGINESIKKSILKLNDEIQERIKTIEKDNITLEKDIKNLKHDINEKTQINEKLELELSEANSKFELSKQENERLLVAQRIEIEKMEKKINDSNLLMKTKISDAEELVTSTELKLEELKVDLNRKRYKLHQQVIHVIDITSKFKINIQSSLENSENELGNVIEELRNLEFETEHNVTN

The target in test [2] is T2, Cik1-1xFLAG (full-length Cik1, aa 1–594) (S. cerevisiae (S288c)) (UniProt Q01649).
T2 sequence: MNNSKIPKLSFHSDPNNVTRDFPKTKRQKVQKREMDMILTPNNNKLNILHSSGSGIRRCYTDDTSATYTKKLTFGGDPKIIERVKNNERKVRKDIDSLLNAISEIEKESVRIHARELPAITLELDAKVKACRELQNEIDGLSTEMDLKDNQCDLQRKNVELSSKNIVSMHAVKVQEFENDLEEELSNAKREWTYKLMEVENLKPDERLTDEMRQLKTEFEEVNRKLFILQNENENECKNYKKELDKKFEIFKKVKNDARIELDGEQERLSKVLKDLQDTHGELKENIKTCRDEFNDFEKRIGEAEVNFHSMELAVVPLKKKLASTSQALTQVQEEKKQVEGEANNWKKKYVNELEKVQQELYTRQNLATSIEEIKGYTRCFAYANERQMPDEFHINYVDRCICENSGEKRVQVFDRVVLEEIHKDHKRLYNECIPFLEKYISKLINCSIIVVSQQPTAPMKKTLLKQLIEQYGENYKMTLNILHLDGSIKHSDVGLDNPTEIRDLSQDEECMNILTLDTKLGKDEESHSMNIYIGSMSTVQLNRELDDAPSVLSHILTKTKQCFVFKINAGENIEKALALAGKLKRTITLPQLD
The test is described as follows: co-IP; two subunits co-overexpressed in S. cerevisiae; FLAG-tagged subunit bound to M2 anti-FLAG affinity agarose (lysis buffer 300 mM NaCl, washes 150 mM NaCl), HaloTag labelled on the resin, eluted with 3xFLAG peptide; Coomassie SDS-PAGE and fluorescence of the Halo-Kar3 subunit.

The target of test [3] is T3, GST-Bim1^FL (budding yeast) (UniProt P40013).
T3 sequence: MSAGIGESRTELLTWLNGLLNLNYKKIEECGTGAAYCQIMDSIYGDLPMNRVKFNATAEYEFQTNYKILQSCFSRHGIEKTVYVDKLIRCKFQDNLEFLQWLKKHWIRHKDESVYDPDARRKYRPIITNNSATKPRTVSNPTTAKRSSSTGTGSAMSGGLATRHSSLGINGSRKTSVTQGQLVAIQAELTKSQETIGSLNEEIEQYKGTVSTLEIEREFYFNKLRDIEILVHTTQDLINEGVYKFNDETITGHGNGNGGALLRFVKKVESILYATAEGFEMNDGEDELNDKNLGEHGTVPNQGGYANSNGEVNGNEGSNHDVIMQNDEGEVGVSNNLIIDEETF
The test is described as follows: pull-down; 0.1–1 μM GST-tagged bait immobilised on glutathione sepharose; binding partner at a constant 0.5–1 μM; 25 mM Hepes pH 7.2, 250 mM NaCl, 1 mM MgCl2, 1 mM EGTA, 0.5 mM DTT, 0.05% NP-40; 1 hr at 4°C; SDS-PAGE, Coomassie; both purified.

Results are given in words; binding and its absence hold for the method and conditions named. For part of these data: In cells and extracts the contact can be indirect. Some results given as binding are weak or reduced against the parent protein; the word gives no strength. Sequences can lack the tags named with a protein.

As to “recombinant full-length Ndc80 complex (Ndc80p-6xHis/Nuf2p-EGFP and Spc24p/6xHis/Spc25p) (from UniProt P40460 1-691; P33895 1-451; Q04477 1-213; P40014 1-221)”, the binding result in test [1] was “no binding”.

B1: Halo-Kar3 with the amino-terminal tail domain truncated (up to aa 174) (domain or fragment, UniProt P17119 175-729)
chain: MNEGHEIHLKQLAASNKKELKQMENEYKTKIEKLKFMKIKQFENERASLLDKIEEVRNKITMNPSTLQEMLNDVEQKHMLEKEEWLTEYQSQWKKDIELNNKHMQEIESIKKEIENTLKPELAEKKKLLTEKRNAYEAIKVKVKEKEEETTRLRDEVALKQKTNLETLEKIKELEEYIKDTELGMKELNEILIKEETVRRTLHNELQELRGNIRVYCRIRPALKNLENSDTSLINVNEFDDNSGVQSMEVTKIQNTAQVHEFKFDKIFDQQDTNVDVFKEVGQLVQSSLDGYNVCIFAYGQTGSGKTFTMLNPGDGIIPSTISHIFNWINKLKTKGWDYKVNCEFIEIYNENIVDLLRSDNNNKEDTSIGLKHEIRHDQETKTTTITNVTSCKLESEEMVEIILKKANKLRSTASTASNEHSSRSHSIFIIHLSGSNAKTGAHSYGTLNLVDLAGSERINVSQVVGDRLRETQNINKSLSCLGDVIHALGQPDSTKRHIPFRNSKLTYLLQYSLTGDSKTLMFVNISPSSSHINETLNSLRFASKVNSTRLVSRK
modifications: HaloTag TMR ligand covalently bound to the HaloTag
B1: the binding result in test [2] is “binds”.

B2: Vik1–Kar3 heterodimer (full-length Vik1-1xFLAG with Halo-Kar3) (complex, UniProt P17119 1-729; Q12045 1-647)
chain 1: MESLPRTPTKGRSTQHLSTPSPKNDILAMNGHKRRNTTTPPPKHTLLKPQRTDIHRHSLASQSRISMSPNRELLKNYKGTANLIYGNQKSNSGVTSFYKENVNELNRTQAILFEKKATLDLLKDELTETKEKINAVNLKFETLREEKIKIEQQLNLKNNELISIKEEFLSKKQFMNEGHEIHLKQLAASNKKELKQMENEYKTKIEKLKFMKIKQFENERASLLDKIEEVRNKITMNPSTLQEMLNDVEQKHMLEKEEWLTEYQSQWKKDIELNNKHMQEIESIKKEIENTLKPELAEKKKLLTEKRNAYEAIKVKVKEKEEETTRLRDEVALKQKTNLETLEKIKELEEYIKDTELGMKELNEILIKEETVRRTLHNELQELRGNIRVYCRIRPALKNLENSDTSLINVNEFDDNSGVQSMEVTKIQNTAQVHEFKFDKIFDQQDTNVDVFKEVGQLVQSSLDGYNVCIFAYGQTGSGKTFTMLNPGDGIIPSTISHIFNWINKLKTKGWDYKVNCEFIEIYNENIVDLLRSDNNNKEDTSIGLKHEIRHDQETKTTTITNVTSCKLESEEMVEIILKKANKLRSTASTASNEHSSRSHSIFIIHLSGSNAKTGAHSYGTLNLVDLAGSERINVSQVVGDRLRETQNINKSLSCLGDVIHALGQPDSTKRHIPFRNSKLTYLLQYSLTGDSKTLMFVNISPSSSHINETLNSLRFASKVNSTRLVSRK
chain 2: MASQQNKHAFLSKNRIFHNPDNVSSSKSRNLMDITNTTNTMNGSRPSSMKSSLALPPVKDSFPSVSRSASLNINMSKIKDLKDRQDKIRFQRHTLRTQLIECEREIKTIKFRDLNKSRFELYKKKSKQAKYLKQVRDLTQNLNSKDGERADLIKKNKSALATLQAELDQNLILKRQESQELYNNKLIFWENELQIMENVEPDHEITEEISQLKKTLQELNINWANLQKQNLERQVNHESQLRKDFIAFKEAKLKSMENLTNKHRELLDQIATLQSESEKLHKEIMDIDRQAEYSEQNISEINENIKQLELANNPLISKSLQNSQDLEHLQNQMENLKEMASKQEKFYNDTYNTVEKELLRSRRLENSIIEQKGTMRCYAYVMEQNLPENLLFDYENGVITQGLSEHVYKFNRVIPHLKVSEDKFFTQEYSVYHDMCLNQKKNFNLISLSTTPHGSLRESLIKFLAEKDTIYQKQYVITLQFVFLSDDEFSQDMLLDYSHNDKDSIKLKFEKHSISLDSKLVIIENGLEDLPLNFSCDEHPNLPHSGMGIIKVQFFPRDSKSDGNNDPVPVDFYFIELNNLKSIEQFDKSIFKKESCETPIALVLKKLISDTKSFFLLNLNDSKNVNKLLTISEEVQTQLCKRKKKLT
modifications: HaloTag TMR ligand covalently bound to the HaloTag (imaging experiments)
Regarding B2, in test [3], the binding result was “no binding (tested: binding partner 0.5–1 μM; bait 0.1–1 μM)”.

These data come from paper PMC4338441, “Non-catalytic motor domains enable processive movement and functional diversification of the kinesin-14 Kar3” (eLife, 2015).
